Laboratory results from paper doi:10.1101/2020.07.28.225359 (bioRxiv, 2020).
These are yes or no findings as the source states them, for the method shown. Some binding calls cover weakened binding; strength is not graded here.

Protein sequences, listed by entry. Tags and fused reporters are not part of them.
UniProt P19474: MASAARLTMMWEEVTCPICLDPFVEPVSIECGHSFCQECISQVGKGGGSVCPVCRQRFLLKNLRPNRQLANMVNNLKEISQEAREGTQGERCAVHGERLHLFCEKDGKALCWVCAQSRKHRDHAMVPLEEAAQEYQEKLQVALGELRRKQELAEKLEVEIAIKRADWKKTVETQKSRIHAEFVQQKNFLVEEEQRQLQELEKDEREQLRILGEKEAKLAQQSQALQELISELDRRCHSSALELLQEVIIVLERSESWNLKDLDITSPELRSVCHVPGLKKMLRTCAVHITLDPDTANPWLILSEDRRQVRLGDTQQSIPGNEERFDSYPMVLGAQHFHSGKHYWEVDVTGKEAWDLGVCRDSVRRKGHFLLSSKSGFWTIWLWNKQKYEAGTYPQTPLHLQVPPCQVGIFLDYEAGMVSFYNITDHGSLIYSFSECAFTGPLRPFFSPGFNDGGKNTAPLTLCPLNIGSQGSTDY

Target: full length TRIM21 protein (T21FL) (human) (UniProt P19474)
Assay: SAXS

full length TRIM21 protein (T21FL) (from UniProt P19474 1-475) (other; other documents disagree on this pair)
binding: binds
